In US4491631A, “Assay method for lipid component, assay composition, and process for production of enzyme used therefor” (Toyo Jozo Kabushiki Kaisha, priority 1981, dated 1985) one finds activity data, which are given here for one compound.

Protein sequences, listed by entry. Tags and fused reporters are not part of them. Lines headed by an entry give the natural chain unless they say otherwise; changes in a name come on top.
UniProt P28793: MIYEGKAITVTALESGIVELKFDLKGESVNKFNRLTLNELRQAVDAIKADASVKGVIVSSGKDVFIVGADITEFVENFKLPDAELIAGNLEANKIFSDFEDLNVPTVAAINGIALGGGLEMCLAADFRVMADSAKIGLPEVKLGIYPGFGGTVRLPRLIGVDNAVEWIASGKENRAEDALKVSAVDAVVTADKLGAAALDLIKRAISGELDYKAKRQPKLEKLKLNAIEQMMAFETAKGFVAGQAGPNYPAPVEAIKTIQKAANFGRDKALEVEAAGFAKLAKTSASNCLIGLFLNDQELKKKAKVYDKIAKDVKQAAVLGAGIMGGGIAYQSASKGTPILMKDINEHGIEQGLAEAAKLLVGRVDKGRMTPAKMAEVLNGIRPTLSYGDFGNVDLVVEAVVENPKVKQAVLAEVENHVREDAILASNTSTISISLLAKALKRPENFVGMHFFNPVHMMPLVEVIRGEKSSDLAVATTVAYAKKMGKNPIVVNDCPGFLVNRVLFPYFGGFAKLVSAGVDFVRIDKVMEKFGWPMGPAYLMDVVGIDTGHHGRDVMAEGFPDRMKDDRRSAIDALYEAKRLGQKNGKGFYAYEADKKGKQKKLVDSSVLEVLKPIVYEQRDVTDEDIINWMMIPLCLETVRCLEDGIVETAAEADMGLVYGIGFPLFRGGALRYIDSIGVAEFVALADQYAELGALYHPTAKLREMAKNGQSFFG

The test concerns the target T1, 3-hydroxyacyl-CoA dehydrogenase activity of multi-active enzyme (Pseudomonas fragi, UniProt P28793).
T1 construct: Crude enzyme was prepared from microbial cells of Pseudomonas fragi B-0771; endogenous in cells; host or cells: Pseudomonas fragi B-0771 FERM-P No. 5701 (enzyme extracted with lysozyme and purified from its own cells, not recombinant)
As to the kind of experiment: Effect of surface active agents on 3-hydroxyacyl-CoA dehydrogenase activity. The format is biochemical, Pseudomonas fragi B-0771. The settings on record: 10 min; 0.1% surface active agent; control 100; read-out: Relative activity. The procedure:
The enzyme solution (50 μl) was added to the above reaction mixture, which was preincubated at 27° C. for 2 minutes, and the mixture was incubated at 37° C. for 10 minutes. 0.5% sodium dodecyl sulfate (2.0 ml) was added to stop the reaction and the absorbency was measured at 550 nm (ΔA550) One unit (1 U) is defined as the amount of enzyme which generates 1 μmole of reduced NAD in one minute. Enzyme activity is defined by the following equation: [formula] (c) Assay method of 3-ketoacyl-CoA thiolase activity:
(10) Effect of surface active agents:
The effect of surface active agents was measured on 3-hydroxyacyl-CoA dehydrogenase activity.

Take `CCCCCCCCCCCCCCCC[n+]1ccccc1` [cetylpyridinium chloride]: the activity at 0.1 % stood at 0%.
